PubChem BioAssay AID504774, Drosophila RNAi Screening Center | 2011

- Aim: 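Fly genes whose loss alters survival after alkylation damage to DNA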 (primary screen)
- System: Drosophila Kc167 cells
- Reagent: long dsRNA against Drosophila genes, about 0.25 µg dsRNA per well
- Time to read-out: about 6 days: 3 days knock-down, then 3 days with or without MMS
- Conditions: methyl methanesulphonate 0.004% (w/v) for 3 days after knock-down
- Detection: 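Viability in wells given MMS, read as ATP luminescence, normalised by quantiles plate by plate and averaged across replicates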
- Reading the numbers: mean viability with MMS and viability with MMS: higher = more surviving cells after MMS
In all, the deposit lists about 23,000 reagents; shown is an unselected part of those that have a named target and a result. 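Values are quantile-normalised luminescence on an arbitrary scale; higher means more cells surviving MMS.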 Further read-outs or replicates are left out here.

{"target": "CG4822", "DRSC id": "DRSC00669", "mean viability with MMS": 3.60e6, "viability with MMS, replicate 1": 4.37e6}
{"target": "Lrrk", "DRSC id": "DRSC15816", "mean viability with MMS": 3.81e6, "viability with MMS, replicate 1": 4.24e6}
{"target": "Lrrk", "DRSC id": "DRSC21971", "mean viability with MMS": 3.51e6, "viability with MMS, replicate 1": 3.91e6}
{"target": "CG10553", "DRSC id": "DRSC14254", "mean viability with MMS": 3.46e6, "viability with MMS, replicate 1": 3.90e6}
{"target": "bel", "DRSC id": "DRSC16555", "mean viability with MMS": 3.71e6, "viability with MMS, replicate 1": 4.31e6}
{"target": "Cpr65Az", "DRSC id": "DRSC09882", "mean viability with MMS": 3.60e6, "viability with MMS, replicate 1": 3.92e6}
{"target": "Cpr65Az", "DRSC id": "DRSC22057", "mean viability with MMS": 3.71e6, "viability with MMS, replicate 1": 4.15e6}
{"target": "coro", "DRSC id": "DRSC05007", "mean viability with MMS": 3.80e6, "viability with MMS, replicate 1": 4.20e6}
{"target": "coro", "DRSC id": "DRSC21417", "mean viability with MMS": 3.48e6, "viability with MMS, replicate 1": 4.02e6}

Records above whose target name begins with C or c (6):
{"target": "CG4822", "DRSC id": "DRSC00669", "mean viability with MMS": 3.60e6, "viability with MMS, replicate 1": 4.37e6}
{"target": "CG10553", "DRSC id": "DRSC14254", "mean viability with MMS": 3.46e6, "viability with MMS, replicate 1": 3.90e6}
{"target": "Cpr65Az", "DRSC id": "DRSC09882", "mean viability with MMS": 3.60e6, "viability with MMS, replicate 1": 3.92e6}
{"target": "Cpr65Az", "DRSC id": "DRSC22057", "mean viability with MMS": 3.71e6, "viability with MMS, replicate 1": 4.15e6}
{"target": "coro", "DRSC id": "DRSC05007", "mean viability with MMS": 3.80e6, "viability with MMS, replicate 1": 4.20e6}
{"target": "coro", "DRSC id": "DRSC21417", "mean viability with MMS": 3.48e6, "viability with MMS, replicate 1": 4.02e6}

Continued:
{"target": "RabX2", "DRSC id": "DRSC18234", "mean viability with MMS": 3.68e6, "viability with MMS, replicate 1": 4.13e6}
{"target": "CG10164", "DRSC id": "DRSC14197", "mean viability with MMS": 1.76e6, "viability with MMS, replicate 1": 4.06e6}
{"target": "CG10194", "DRSC id": "DRSC02025", "mean viability with MMS": 3.69e6, "viability with MMS, replicate 1": 4.08e6}
{"target": "Ts", "DRSC id": "DRSC00795", "mean viability with MMS": 3.66e6, "viability with MMS, replicate 1": 4.02e6}
{"target": "Ts", "DRSC id": "DRSC22168", "mean viability with MMS": 3.39e6, "viability with MMS, replicate 1": 3.89e6}
